This assay concerns nude mice, LX-1 lung xenograft intrarenal, tumor weight T/C. Nature of the assay: NCI In Vivo Anticancer Drug Screen. Data for tumor model Human Lung LX-1 Xenograft (intrarenal inoculation) in NU/NU Swiss (nude) mice. The note with it: T/C endpoint: mean tumor weight change, higher T/C = larger tumour; for T/C: evaluated on day 11. In a few lines:
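Antitumor effect is expressed as a ratio: the mean tumor measurement of the drug-treated group relative to that of the vehicle-dosed control group.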

Where [1] appears, read: dose: 1.0 mg/kg/injection, schedule: Q01DX010 (sc), vehicle: saline.
Where [2] appears, read: dose: 2.0 mg/kg/injection, schedule: Q01DX010 (sc), vehicle: saline.
Where [3] appears, read: dose: 200.0 mg/kg/injection, schedule: Q04DX003 (sc), vehicle: saline with Tween-80.
The mark [4] stands for this setting: dose: 400.0 mg/kg/injection, schedule: Q04DX003 (sc), vehicle: saline with Tween-80.
Setting [5] is: dose: 25.0 mg/kg/injection, schedule: Q01DX010 (sc), vehicle: Klucel (hydroxypropylcellulose) (HPC).
[6] abbreviates: dose: 50.0 mg/kg/injection, schedule: Q01DX010 (sc), vehicle: Klucel (hydroxypropylcellulose) (HPC).
[7] abbreviates: dose: 100.0 mg/kg/injection, schedule: Q01DX010 (sc), vehicle: saline.
The mark [8] stands for this setting: dose: 200.0 mg/kg/injection, schedule: Q04DX003 (sc), vehicle: suspension in saline.
Setting [9] is: dose: 400.0 mg/kg/injection, schedule: Q04DX003 (sc), vehicle: suspension in saline.

The list shows only some results of the screen, not a fair sample: it gathers tests that were run many times, whatever their T/C, doses with no T/C, and many T/C values between a quarter and a half above the control. Further doses and runs are listed elsewhere. T/C is the treated group as % of the vehicle group. Schedules are NCI's codes, taken here to give the interval after Q, in days (D) or hours (H), and the number of doses after X. Some T/C values carry the count of animals alive at the toxicity check (mostly the fifth day); where none is given, no animal had died by that day. Some doses were run more than once; the results are listed from low to high. Some entries give survivors of the animals treated and no T/C: the source files T/C as zero there, which appears to mark a toxic dose or a test without result, not a measured value. Counts of survivors are from the toxicity check (mostly the fifth day) where no day follows; animals may have died later. Numbered stars: 1 amine (or outer) side, 2 acyl side, 3 side chain; on linkers, the order of the positions; unused ones are H or OH. Square brackets hold non-standard residues; d marks the D form. Peptide text beside a SMILES is read from it. * marks the point of attachment. X2 = CCC(=O)CC1CC(C)CC(C(=O)[*:2])N1[*:1]; X1 = CCCCCCCCC(C)C(=O)*; Aib = CC(C)(N)C(=O)O; X3 = CC(CN(C)CCO)N*

In the case of `CCN1C=C/C(=C\C=C/c2cc[n+](CC)c3ccccc23)c2ccccc21`, the T/C runs as follows: (dose: 0.5 mg/kg/injection, schedule: Q01DX010 (sc), vehicle: saline) 141 % of control; under setting [1], 133 % of control. For the same compound, the survivor count under setting [2] is recorded as 1 of 3 on day 11.

For the compound `CCOC(=O)[C@]1(Br)CC[C@@]1(Br)C(=O)OCC`, the T/C is 142 % of control (dose: 100.0 mg/kg/injection, schedule: Q04DX003 (sc), vehicle: saline with Tween-80); 125 % of control under setting [3]; 145 % of control under setting [4]. The survivor count (dose: 2400.0 mg/kg/injection, schedule: Q04DX003 (sc), vehicle: saline with Tween-80) is on record as 2 of 6 on day 11.

Regarding `BrC1c2cccc3cccc(c23)C1Br` (centres undefined), the T/C is, setting by setting: (dose: 150.0 mg/kg/injection, schedule: Q04DX003 (sc), vehicle: saline with Tween-80) 135 % of control; (dose: 300.0 mg/kg/injection, schedule: Q04DX003 (sc), vehicle: saline with Tween-80) 138 % of control.

As to `O=C(O[Si](Cc1ccccc1)(Cc1ccccc1)Cc1ccccc1)N(CCCl)CCCl`, the T/C under setting [4] is 144 % of control [5 of 6 alive on day 11]. Also, where the note is “dose: 800.0 mg/kg/injection, schedule: Q04DX003 (sc), vehicle: saline with Tween-80”, the survivor count was 1 of 6 on day 11.

On to `Nc1ncnc2c1ncn2C1C=C(CO)C(O)C1O` (centres undefined), for which, where the note is “dose: 30.0 mg/kg/injection, schedule: Q04DX003 (sc), vehicle: saline”, the survivor count is 1 of 6 on day 11.

Take `S=c1nc[nH]c2nc[nH]c12`: the survivor count is recorded as 1 of 3 on day 11 under setting [5]; 0 of 3 on day 11 under setting [6]; 0 of 3 on day 11 (dose: 100.0 mg/kg/injection, schedule: Q01DX010 (sc), vehicle: Klucel (hydroxypropylcellulose) (HPC)).

As to `CC1CCC(NC(=O)N(CCCl)N=O)CC1` (centres undefined), the survivor count under setting [5] is 0 of 3 on day 11 and the survivor count under setting [6] is recorded as 0 of 2 on day 11.

Turning to `COc1cc([C@@H]2c3cc4c(cc3[C@@H](OC3OC5COC(C)OC5C(O)C3O)[C@H]3COC(=O)[C@H]23)OCO4)cc(OC)c1O` (some centres undefined), the survivor count (dose: 32.0 mg/kg/injection, schedule: Q01DX010 (sc), vehicle: saline) is 0 of 3 on day 11 and the survivor count (dose: 64.0 mg/kg/injection, schedule: Q01DX010 (sc), vehicle: saline) is reported as 0 of 3 on day 11.

Consider `OCCN1CCN(CC/C=C2/c3ccccc3Sc3ccc(C(F)(F)F)cc32)CC1`, for which the survivor count (dose: 80.0 mg/kg/injection, schedule: Q01DX010 (sc), vehicle: saline) is 0 of 3 on day 11.

Regarding `O=P1(N(CCCl)CCCl)NCCCO1` (centres undefined), the T/C runs as follows: (dose: 12.5 mg/kg/injection, schedule: Q01DX010 (sc), vehicle: saline) 54, 63, 73, 94 % of control [2 of 2 alive on day 11]; (dose: 25.0 mg/kg/injection, schedule: Q01DX010 (sc), vehicle: saline) 42 [2 of 2 alive on day 11], 45, 49, 70 % of control; (dose: 50.0 mg/kg/injection, schedule: Q01DX010 (sc), vehicle: saline) 15 [2 of 3 alive on day 11], 26, 36, 41 % of control; under setting [7], 13 and 23 % of control [2 of 3 alive on day 11]. Further, the survivor count by setting is: (dose: 50.0 mg/kg/injection, schedule: Q01DX010 (ip), vehicle: saline) 0 of 3 on day 11; (dose: 83.33 mg/kg/injection, schedule: Q04DX003 (ip), vehicle: saline) 0 of 3 on day 11; under setting [7], 0 of 3 on day 11; (dose: 166.6 mg/kg/injection, schedule: Q04DX003 (sc), vehicle: saline) 0 of 3 on day 11; (dose: 166.65 mg/kg/injection, schedule: Q04DX003 (ip), vehicle: saline) 0 of 3 on day 11; under setting [8], 0 of 6 on day 11. The survivor count is given as 0 of 3 on day 11 (dose: 333.3 mg/kg/injection, schedule: Q04DX003 (sc), vehicle: saline) and 0 of 6 on day 11 under setting [9].

Consider `NC(C(=O)O)c1ccc(CBr)cc1` (centres undefined), for which the survivor count is, setting by setting: (dose: 600.0 mg/kg/injection, schedule: Q04DX003 (sc), vehicle: acid diluted with saline) 3 of 6 on day 11; (dose: 1200.0 mg/kg/injection, schedule: Q04DX003 (sc), vehicle: acid diluted with saline) 1 of 6 on day 11; (dose: 2400.0 mg/kg/injection, schedule: Q04DX003 (sc), vehicle: acid diluted with saline) 0 of 6 on day 11.

`CCCCCCCCC(C)C(=O)N1CCCC1C(=O)N1C(CC(=O)CC)CC(C)CC1C(=O)NC(C)C(=O)NC(C)(C)C(=O)NC(C)(C)C(=O)NC(C(=O)NC(C)C(=O)NC(C)(C)C(=O)NC(C)(C)C(=O)NC(C)CN(C)CCO)C(C)CC` (centres undefined) (X1-P[X2]A[Aib][Aib]IA[Aib][Aib]-X3; configuration not given here): the T/C reads like this: (dose: 1.25 mg/kg/injection, schedule: Q04DX003 (sc), vehicle: Klucel (hydroxypropylcellulose) (HPC)) 126 % of control; (dose: 2.5 mg/kg/injection, schedule: Q04DX003 (sc), vehicle: Klucel (hydroxypropylcellulose) (HPC)) 126 % of control. Besides, under “dose: 10.0 mg/kg/injection, schedule: Q04DX003 (sc), vehicle: Klucel (hydroxypropylcellulose) (HPC)”, the survivor count was 3 of 6 on day 11.

`O=c1[nH]c(=O)n(C2CC(O)C(CO)O2)cc1F` (centres undefined): the T/C (dose: 25.0 mg/kg/injection, schedule: Q01DX010 (sc), vehicle: water) is 146 % of control. For the setting “dose: 200.0 mg/kg/injection, schedule: Q01DX010 (sc), vehicle: water”, the survivor count is reported as 0 of 3 on day 11.

On to `O=C(O)CC(NC(=O)CP(=O)(O)O)C(=O)O.[NH-]C1CCCCC1[NH-].[Pt+2]` (centres undefined), for which, for the setting “dose: 50.0 mg/kg/injection, schedule: Q04DX003 (sc), vehicle: dextrose”, the survivor count is given as 3 of 6 on day 11.

For the compound `CN(Cc1cnc2nc(N)nc(N)c2n1)c1ccc(C(=O)N[C@@H](CCC(=O)O)C(=O)O)cc1`, the survivor count (dose: 4.0 mg/kg/injection, schedule: Q01DX010 (sc), vehicle: sodium bicarbonate) is 1 of 3 on day 11.

Take `C=C1C(=O)OCC1C(=O)O` (centres undefined): the survivor count under setting [9] is 1 of 6 on day 11.

Consider `CC(=O)Oc1ccc[nH]c1=O`, for which, under setting [3], the T/C is 125 % of control. The survivor count (dose: 1600.0 mg/kg/injection, schedule: Q04DX003 (sc), vehicle: saline with Tween-80) is listed as 3 of 6 on day 11.

In the case of `Cc1c2cc[n+](CCN3CCCCC3)cc2c(C)c2c1[nH]c1ccc(O)cc12`, the survivor count runs as follows: under setting [8], 0 of 6 on day 11; under setting [9], 0 of 6 on day 11.

`CN1CCN(c2ccc3nc(-c4ccc5nc(-c6ccc(O)cc6)[nH]c5c4)[nH]c3c2)CC1`: the T/C (dose: 100.0 mg/kg/injection, schedule: Q04DX003 (sc), vehicle: saline) is 140 % of control [3 of 4 alive on day 11]. Also, where the note is “dose: 800.0 mg/kg/injection, schedule: Q04DX003 (sc), vehicle: saline”, the survivor count is reported as 1 of 6 on day 11.

Take `COc1cc2cc(c1Cl)N(C)C(=O)CC(OC(=O)CC(C)C)C1(C)OC1C(C)C1CC(O)(NC(=O)O1)C(OC)/C=C/C=C(C)C2` (centres undefined): where the note is “dose: 100.0 micrograms/kg/injection, schedule: Q01DX010 (sc), vehicle: saline + alcohol”, the survivor count is reported as 0 of 3 on day 11.

Consider `O=P1(NCCCl)OCCCN1CCCl` (centres undefined), for which the survivor count is listed as 3 of 6 on day 11 (dose: 300.0 mg/kg/injection, schedule: Q04DX003 (sc), vehicle: saline) and 0 of 6 on day 11 (dose: 600.0 mg/kg/injection, schedule: Q04DX003 (sc), vehicle: saline).

Take `COc1cc2c(c(OC)c1OC)-c1ccc(OC)c(=O)cc1[C@@H](NC(C)=O)CC2`: the survivor count under setting [1] is listed as 1 of 3 on day 11 and the survivor count under setting [2] is on record as 0 of 3 on day 11.

Values taken from PubChem BioAssay AID264 (DTP/NCI, 2004).
